# Measurements: patent publication US9623049B2, “Immunotherapy using redirected allogeneic cells” (YEDA RESEARCH AND DEVELOPMENT CO. LTD., priority 2010, dated 2017)
# Assay: In vivo bioluminescence imaging (IVIS) of luciferase+ T-bodies in Renca-Her2/neu-bearing mice
# Parameters: species or system Balb/c mice
# Settings: 400 rads, FTY720 0.3 mg/kg ip
smiles,measurement,setting,value
"CCCCCCCCc1ccc(CCC(N)(CO)CO)cc1.Cl [FTY720, 2-amino-2-[2-(4-octylphenyl)ethyl]propane-1,3-diol]",effect of FTY720 on BLI signal of allogeneic T-bodies,30x10^6 allogeneic T-bodies,"higher, especially from the lymphatic organs, and persisted for a longer time"
same,effect of FTY720 on migration or persistence of syngeneic T-bodies,30x10^6 syngeneic T-bodies,did not seem to significantly alter the migration or the persistence
